For two substances, binding results are on record in paper PMC12515809.

Chains of the proteins cited; added tags and fusions are not shown.
UniProt O97159: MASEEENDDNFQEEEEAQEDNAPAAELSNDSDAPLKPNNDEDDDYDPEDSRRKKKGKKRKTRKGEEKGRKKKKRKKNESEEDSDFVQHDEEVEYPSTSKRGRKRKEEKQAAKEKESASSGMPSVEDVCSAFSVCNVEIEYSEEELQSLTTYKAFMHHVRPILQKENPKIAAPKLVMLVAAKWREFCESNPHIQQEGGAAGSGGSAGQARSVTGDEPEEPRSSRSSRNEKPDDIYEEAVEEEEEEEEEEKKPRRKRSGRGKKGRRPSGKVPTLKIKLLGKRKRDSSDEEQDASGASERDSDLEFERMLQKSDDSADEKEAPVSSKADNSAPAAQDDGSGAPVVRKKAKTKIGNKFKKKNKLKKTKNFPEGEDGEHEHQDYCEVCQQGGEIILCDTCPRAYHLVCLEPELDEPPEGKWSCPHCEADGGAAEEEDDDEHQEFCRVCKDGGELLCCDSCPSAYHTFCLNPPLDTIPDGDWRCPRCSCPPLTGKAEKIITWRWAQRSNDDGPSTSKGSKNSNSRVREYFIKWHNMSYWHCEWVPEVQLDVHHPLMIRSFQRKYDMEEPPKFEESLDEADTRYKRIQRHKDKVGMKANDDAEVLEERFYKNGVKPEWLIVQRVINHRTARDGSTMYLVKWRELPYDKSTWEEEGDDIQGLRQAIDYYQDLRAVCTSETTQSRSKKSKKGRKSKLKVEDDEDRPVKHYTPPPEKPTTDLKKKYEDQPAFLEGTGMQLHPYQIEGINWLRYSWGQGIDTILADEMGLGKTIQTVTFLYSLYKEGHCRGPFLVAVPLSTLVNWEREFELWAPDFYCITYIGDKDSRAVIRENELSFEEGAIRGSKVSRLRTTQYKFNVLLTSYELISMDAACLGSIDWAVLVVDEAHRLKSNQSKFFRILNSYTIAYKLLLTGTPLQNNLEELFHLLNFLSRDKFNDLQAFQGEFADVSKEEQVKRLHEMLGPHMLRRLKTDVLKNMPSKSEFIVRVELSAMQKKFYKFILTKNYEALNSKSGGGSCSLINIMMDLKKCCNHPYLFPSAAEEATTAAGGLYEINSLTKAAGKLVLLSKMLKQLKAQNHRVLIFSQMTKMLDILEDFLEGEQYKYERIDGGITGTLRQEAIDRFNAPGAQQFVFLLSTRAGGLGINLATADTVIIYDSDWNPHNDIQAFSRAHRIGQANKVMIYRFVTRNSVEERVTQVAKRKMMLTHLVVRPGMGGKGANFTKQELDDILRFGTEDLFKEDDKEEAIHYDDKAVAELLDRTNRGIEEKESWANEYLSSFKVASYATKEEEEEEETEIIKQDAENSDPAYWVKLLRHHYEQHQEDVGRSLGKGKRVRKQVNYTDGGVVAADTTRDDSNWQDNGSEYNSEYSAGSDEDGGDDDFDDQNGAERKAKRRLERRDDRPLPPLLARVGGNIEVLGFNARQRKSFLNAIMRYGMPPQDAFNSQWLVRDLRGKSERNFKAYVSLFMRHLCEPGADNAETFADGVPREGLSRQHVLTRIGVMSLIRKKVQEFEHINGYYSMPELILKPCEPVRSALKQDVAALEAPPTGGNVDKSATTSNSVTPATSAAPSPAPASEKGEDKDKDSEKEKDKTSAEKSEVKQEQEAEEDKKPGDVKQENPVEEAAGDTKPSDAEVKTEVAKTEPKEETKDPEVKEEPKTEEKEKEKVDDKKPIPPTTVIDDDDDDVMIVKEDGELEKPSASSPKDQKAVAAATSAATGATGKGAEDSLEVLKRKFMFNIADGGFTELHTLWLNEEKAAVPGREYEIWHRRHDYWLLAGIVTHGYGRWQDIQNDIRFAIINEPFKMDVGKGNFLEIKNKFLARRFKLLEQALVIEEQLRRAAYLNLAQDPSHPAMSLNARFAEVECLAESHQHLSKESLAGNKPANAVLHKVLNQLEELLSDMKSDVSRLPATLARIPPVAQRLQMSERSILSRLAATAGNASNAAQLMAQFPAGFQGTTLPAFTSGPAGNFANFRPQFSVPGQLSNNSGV
UniProt Q95V55: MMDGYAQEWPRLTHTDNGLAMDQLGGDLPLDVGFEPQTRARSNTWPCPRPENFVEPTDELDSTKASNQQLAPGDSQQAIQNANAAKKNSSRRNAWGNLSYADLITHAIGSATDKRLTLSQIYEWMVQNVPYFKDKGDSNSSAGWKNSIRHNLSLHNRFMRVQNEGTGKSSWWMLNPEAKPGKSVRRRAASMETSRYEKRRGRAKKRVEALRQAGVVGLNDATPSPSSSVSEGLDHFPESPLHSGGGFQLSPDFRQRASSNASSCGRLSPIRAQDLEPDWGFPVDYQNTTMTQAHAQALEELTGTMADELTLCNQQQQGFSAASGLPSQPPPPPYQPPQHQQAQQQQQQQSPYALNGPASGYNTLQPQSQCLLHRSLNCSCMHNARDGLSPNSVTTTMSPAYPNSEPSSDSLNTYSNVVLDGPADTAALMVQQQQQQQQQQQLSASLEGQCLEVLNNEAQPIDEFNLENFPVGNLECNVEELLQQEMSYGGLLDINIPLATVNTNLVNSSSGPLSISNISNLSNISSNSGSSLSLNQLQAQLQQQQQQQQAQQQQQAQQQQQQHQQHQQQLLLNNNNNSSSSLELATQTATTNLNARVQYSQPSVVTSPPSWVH

The target in assay [1] is Flag-tagged Mi-2 (Drosophila melanogaster) (UniProt O97159). Briefly: co-IP; S2 cells co-transfected with Flag-Mi-2 and Myc-Foxo, lysed after 48 h (150 mM NaCl, 50 mM Tris-HCl pH 7.5, 10% glycerol, 0.5% Triton X-100); anti-Flag beads at 4°C overnight; washes with 500 mM NaCl; blots for Flag and Myc.
The target of assay [2] is endogenous Mi-2 (Drosophila melanogaster (endogenous in fat body of w1118 flies)) (UniProt O97159). Briefly: co-IP; lysate of fat body tissue dissected from w1118 flies; immunoprecipitation with anti-Mi-2 antibodies and agarose beads at 4°C overnight, rat IgG as control; washes with 500 mM NaCl; Western blot.

Results are given in words; binding and its absence hold for the method and conditions named. Binding seen in cells or lysates may run through a third protein. Some binding calls cover weakened binding; strength is not graded here.

For the substance “Myc-tagged Foxo (from UniProt Q95V55 1-613)”, in assay [1], the binding entry is “binds”.

With “endogenous Foxo (fat body) (from UniProt Q95V55 1-613)”, in assay [2], the binding result was “binds”.
